Over roughly 33,000 sequences, “E-score (-0.5 to 0.5)” has its median near -0.0034; the highest 2% begin near 0.25. The list shows a part of the results.
target: T1, Yap3 (UniProt P38749); experiment: PBM E-score (8-mer binding enrichment) (E-score (-0.5 to 0.5)); higher = stronger / more preferred TF binding; details: protein concentration: 100 nM; construct: GST-full length
T1 sequence: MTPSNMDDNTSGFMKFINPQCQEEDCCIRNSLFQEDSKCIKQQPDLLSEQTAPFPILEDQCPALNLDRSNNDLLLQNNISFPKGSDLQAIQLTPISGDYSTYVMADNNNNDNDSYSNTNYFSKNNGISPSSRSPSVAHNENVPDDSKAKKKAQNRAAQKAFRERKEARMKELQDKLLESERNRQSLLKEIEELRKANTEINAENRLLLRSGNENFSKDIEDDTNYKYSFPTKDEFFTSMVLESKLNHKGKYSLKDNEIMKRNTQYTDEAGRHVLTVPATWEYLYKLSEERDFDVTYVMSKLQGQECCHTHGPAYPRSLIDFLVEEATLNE
How it was run: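 Using PURExpress in vitro transcription/translation, GST-tagged yeast transcription factors were made in full-length or DNA-binding-domain form. These were applied at about 100-200 nM to double-stranded universal all-10-mer Agilent arrays, and bound protein was detected with fluorescent anti-GST. Scans were normalised with masliner before the Universal PBM Analysis Suite assigned E-scores to ungapped eight-base words pooled with their reverse complements.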

Sequence | PBM E-score
AGAAGACT | -0.0743
ACGTCCAG | -0.194
GAGCCCTC | -0.24
CTTCAAGC | -0.172
GTGCTATA | 0.189
GGGTTCCA | -0.221
ACTGCAGG | -0.213
CGACCGTA | -0.0633
CCACCCGA | 0.0551
ACGATTGA | -0.0216
CAGAGTTA | -0.0557
AAACAGAG | 0.0343
ATACCTTG | 0.0786
ATAGGAAC | 0.126
GGTATACA | 0.00445
CCGGCCCG | -0.303
AGGCATAT | 0.0305
AAAACCAT | 0.174
AGATGTGC | 0.11
CGGTGGCA | -0.289
TTATTGAA | 0.183
AATAGGTA | 0.14
AAGTTCTA | 0.0351
CGACCTTA | 0.0354

Sequence | PBM E-score
CCGCCTCC | -0.231
GCACCACA | -0.0944
TAACGAGA | 0.195
AGCACCAG | -0.078
CATTGAAA | 0.229
CCCATGGA | -0.0692
ACCTGCAA | -0.125
CAATTCTA | 0.113
CGCCAAGA | -0.284
ATACATGA | 0.113
GCCGCTAA | -0.0267
ATTCATGG | -0.0129
AGCTGTAC | -0.0794
AAAGGGAG | -0.216
CTATTGTA | 0.16
GCCGGCAA | 0.0311
ACCTAGGA | 0.0583
GAGTCACC | -0.196
CGCTTGTA | 0.178
TCATCTCA | 0.249
CCGATGTC | 0.0178
CAGCTAAC | -0.146
ACGCCAGG | -0.13
AACTTACT | -0.0275

Sequence | PBM E-score
GGAATGCC | -0.107
ACACTGGG | -0.12
ATATCTTA | 0.201
CATGGAAC | -0.0425
CTTCTAGC | -0.249
GGATGAAA | 0.214
CCACTGCC | -0.0514
CTCAAGAA | -0.036
ATCTTAGC | -0.103
AGAAGTGA | -0.0627
ACAAAAAT | 0.298
AACACCAT | 0.169
ACTACTCG | 0.115
GATAGCGC | -0.0561
AGATGGCC | -0.161
CCGAAGGC | -0.309
GCATTAAA | 0.177
AACGCAAA | 0.0912
ATAACGCG | 0.107
CGGCGTAC | -0.15
ACGCAAGC | 0.0328
TCTTCTAA | 0.0237
CATAGTCC | -0.0721
GATCTGCA | -0.145

29 consecutive records already listed, for reference:
Sequence | PBM E-score
CCGGCCCG | -0.303
AGGCATAT | 0.0305
AAAACCAT | 0.174
AGATGTGC | 0.11
CGGTGGCA | -0.289
TTATTGAA | 0.183
AATAGGTA | 0.14
AAGTTCTA | 0.0351
CGACCTTA | 0.0354
CCGCCTCC | -0.231
GCACCACA | -0.0944
TAACGAGA | 0.195
AGCACCAG | -0.078
CATTGAAA | 0.229
CCCATGGA | -0.0692
ACCTGCAA | -0.125
CAATTCTA | 0.113
CGCCAAGA | -0.284
ATACATGA | 0.113
GCCGCTAA | -0.0267
ATTCATGG | -0.0129
AGCTGTAC | -0.0794
AAAGGGAG | -0.216
CTATTGTA | 0.16
GCCGGCAA | 0.0311
ACCTAGGA | 0.0583
GAGTCACC | -0.196
CGCTTGTA | 0.178
TCATCTCA | 0.249

Following part.

Sequence | PBM E-score
TAATTTAA | 0.178
AGAACCAT | 0.165
GGTCATTA | 0.088
AACATATT | 0.213
ACCCGCAG | -0.0808
AAACCTAC | 0.244
CACCGTGA | -0.0612
ACGCCGCT | 0.00458
ATGATCAC | 0.159
ACTAAGGG | -0.00212
AGAGTACC | 0.0203
AAGCCGCC | -0.181
AGCAGTTA | -0.0217
CTTCTCTA | -0.105
AATACCTC | 0.101
ATTTAGGG | -0.0356
AGAATAGA | 0.0892
ACCAGCAT | 0.116
AGGATACT | -0.0431
ACGCATTA | 0.073
CGGATGTC | -0.134
ACGGAAGT | 0.126
